For at least one compound, name, drawing or mass did not settle the structure.
Columns and labels:
[1] = test system: Human pancreatic cancer cell line Panc-1; experiment: In vitro anti-cancer cell experiment (MTT), Panc-1; assay type: cell-based; details: Panc-1, in words
Protocol: (§1) a. Cell lines: Human pancreatic cancer cell line Panc-1, human colorectal cancer cell line HT29 and human lung cancer cell line NCI—H460; the medium: s DMEM (Gibco BRL), containing 10% fetal calf serum (Gibco BRL) and 2 mM L-glutamine (Gibco BRL).
(§2) b. Test samples: example compounds 5, 9, 10, 22 and 24. The samples were dissolved in dimethyl sulfoxide (DMSO, Sigma, United States) and medium was added to the final concentration of 0.5%. Cisplatin was as positive control of (CDDP, purity 96%, from Kunming Institute of Precious Metals).
(§3) c. Method: cells were digested with trypsin and dispersed into single cells in the medium containing penicillin (25 U/ml) and streptomycin (25 μg/ml). The cells were seeded in 96-well culture plates (Corning Incorporated), at 37° C., in a humidified atmosphere with 5% CO2 present for 24 hours. The culture medium was removed, […] test compounds were added, cultured for 48 hours. Culture medium was removed and […] (MTT, USA Sigma products) was added. The result was assayed by SK601-based microplate reader (Japan Seikagaku company's products), 570 nm/630 nm optical density (OD).
(§4) Calculation of cell viability: (Experimental group OD/control OD)×100%; Positive control CDDP was treated in the same way.

[2] = test system: human colorectal cancer cell line HT29; experiment: In vitro anti-cancer cell experiment (MTT), HT29; assay type: cell-based; details: HT29, in words
Protocol: as §1, §2, §3, §4

## COC(=O)/C(C)=C\CC12OC(C)(C)[C@H]3C[C@@H](C=C4C(=O)c5c(OC(=O)c6ccc(O[C@@H]7O[C@@H]8COC(C)(C)O[C@H]8[C@H](O)[C@H]7O)cc6)c6c(c(CC=C(C)C)c5OC431)OC(C)(CCC=C(C)C)C=C6)C2=O (some centres unmarked) [Compound 5]
[1]
  anti-proliferative effect on Panc-1: showed anti-proliferative effect
[2]
  anti-proliferative effect on HT29: showed anti-proliferative effect
